Counter-ions that a name gives are not always drawn. This is one part of the list. This data set is noisy: repeats of one test often differ as much as different tests do.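 The human kidney-derived cells carry a stably integrated construct of eight TEAD-binding elements driving luciferase, read by luminescence in a drug-repurposing library screen. A compound counts as a hit when its signal is more than five robust Z scores above the plate mean.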
System: HEK293A TEAD-LUC reporter
Experiment: TEAD-luciferase reporter activity (YAP activation), robust Z score vs plate; higher = stronger YAP/TEAD activation
Conditions: 24 h

| SMILES | TEAD-luciferase reporter activity (compound concentration: 200 nM) | TEAD-luciferase reporter activity (compound concentration: 2 uM) | TEAD-luciferase reporter activity (compound concentration: 10 uM) |
| --- | --- | --- | --- |
| COc1nc2ccc(Br)cc2cc1[C@@H](c1ccccc1)[C@@](O)(CCN(C)C)c1cccc2ccccc12 [Bedaquiline] | inactive: -0.989 | inactive: -1.55 | inactive: 2.44 |
| C[C@H](NC(=O)c1ccc(C(=N)N)cc1)C(=O)N1CCC(OCC(=O)O)CC1 | inactive: 0.551 | inactive: -0.951 | inactive: -1.64 |
| CCCCCCCCC(O)C(O)CCCCCCCC(=O)O (stereo not drawn) [Contracyn] | inactive: -0.487 | inactive: 1.11 | inactive: 2.27 |
| CO/C=C(/C(=O)OC)c1ccc(Cl)cc1COc1ccc(OCCOC)cc1 | inactive: -0.312 | inactive: -1.05 | inactive: 1.1 |
| COCCNC(=O)Cn1cnc([N+](=O)[O-])n1 | inactive: 0.685 | inactive: -0.459 | inactive: -0.314 |
| Cc1c(N=C2NCCN2)ccc2c1NCCO2 | inactive: -0.93 | inactive: -1.67 | inactive: 2.51 |
| Nc1cc(N2CCCCC2)nc(N)[n+]1[O-] | inactive: -1.41 | inactive: 0.00296 | inactive: -0.506 |
| NC(N)=NC(=O)c1cnn(-c2cccc3ncccc23)c1C1CC1 [Zoniporide hydrochloride] | inactive: 0.21 | inactive: 0.104 | inactive: 2.42 |
| CN1CCC(c2cn(C)c3ccc(OS(=O)(=O)c4c(F)cccc4F)cc23)CC1 | inactive: -1.19 | inactive: -1.09 | inactive: -0.645 |
| CC(C)c1csc(COc2cccc(CN(CCCCNS(=O)(=O)c3ccc(Cl)cc3)S(=O)(=O)c3ccccc3C(=O)O)c2)n1 | inactive: 1.17 | inactive: -0.101 | inactive: -0.0747 |
| Cc1nnc(C(CCN2CC3CCC2CC3)(c2ccccc2)c2ccccc2)o1 [nufenoxole] | inactive: -0.958 | inactive: -0.577 | inactive: -0.115 |
| CC1=C[C@H](O)CC(C)(C)[C@H]1/C=C/C(C)=C/C=C/C(C)=C/C=C/C=C(C)/C=C/C=C(C)/C=C/C1=C(C)C[C@@H](O)CC1(C)C [Lutein] | inactive: -1.35 | inactive: -0.87 | inactive: 0.708 |
| CCN(CC)CC[n+]1ccc2c(C)c3[nH]c4ccc(O)cc4c3c(C)c2c1 | inactive: -2.14 | inactive: 1.81 | inactive: 0.736 |
| COc1ccc(C2=NN(Cc3cccc(NC(=O)OCCCN(C)C)c3)C(=O)SC2)cc1OC | inactive: -1.01 | inactive: -1.51 | inactive: -0.257 |
| O=C(O)C1CCN(c2nc(NCc3ccc4c(c3)OCO4)c3cc(Cl)ccc3n2)CC1 | inactive: -0.107 | inactive: -1.78 | inactive: 0.0344 |
| C=CCN(C(=O)OCc1ccc([N+](=O)[O-])cc1)C1CCN(C[C@H]2CN(C(=O)C3CCCC3)C[C@]2(O)c2ccccc2)CC1 | inactive: -1.11 | inactive: 0.0753 | inactive: 3.01 |
| CCOc1cnccc1-c1nc2c(c(CC)nn2C2CCCC2)c(=O)[nH]1 | inactive: -0.883 | inactive: 0.946 | inactive: 0.000314 |
| COc1cc2c(cc1OC)C(=O)C(CC1CCN(Cc3ccccc3)CC1)C2 (stereo not drawn) [Donepezil] | inactive: -1.95 |  | inactive: -1.09 |
| COc1cc2c(cc1OC)C(=O)C(CC1CCN(Cc3ccccc3)CC1)C2 (stereo not drawn) [Anavex Plus] |  | inactive: -0.88 |  |
| C[C@@H](Oc1cc(-n2cnc3ccc(CN4CCN(C)CC4)cc32)sc1C(N)=O)c1ccccc1C(F)(F)F | inactive: -1.54 | inactive: -0.889 | inactive: -1.39 |
| CNc1ccc(CN2CCC(OC(=O)NC(c3ccccc3)c3ccccc3)CC2)cc1 | inactive: -1.17 | inactive: -1.54 | inactive: 2.24 |
| O=C(O)[C@H]1C[C@@H](CP(=O)(O)O)CCN1 | inactive: -1.58 |  | inactive: 0.772 |
| O=C(O)c1ccc(/C=C2\SC(=S)N(c3cccc(C(F)(F)F)c3)C2=O)cc1 | inactive: -0.0417 | inactive: -1.77 | inactive: 2.45 |
| CCCCCCCCCCCCCCOc1ccc(C(=O)OCC(=O)N(C)CC(=O)OCC)o1 [Olumacostat glasaretil] | inactive: -1.89 | inactive: 0.266 | inactive: 1.35 |
| CCCCCCCCCCCC(N=O)c1cc(C)ccc1O (stereo not drawn) | inactive: -0.87 | inactive: 3.03 | inactive: -1.93 |
| O=C(Nc1nc(=O)n(Cc2ccc(Cl)cc2)s1)c1ccc(Cl)cc1 | inactive: 0.047 |  | inactive: -0.483 |
| NC(=O)NCCCC(N)C(=O)O [L-citrulline, Asklepion] | inactive: 0.229 |  | inactive: 0.781 |
| O=C(CN1N=C(C2CCCCC2)c2ccccc2N(CC(=O)C2CCCC2)C1=O)Nc1cccc(-c2nc(=O)o[nH]2)c1 | inactive: -0.903 | inactive: 0.625 | inactive: 0.255 |

Single records, from the list above.
C=CCN(C(=O)OCc1ccc([N+](=O)[O-])cc1)C1CCN(C[C@H]2CN(C(=O)C3CCCC3)C[C@]2(O)c2ccccc2)CC1 as listed: TEAD-luciferase reporter activity (compound concentration: 200 nM): inactive: -1.11; TEAD-luciferase reporter activity (compound concentration: 2 uM): inactive: 0.0753; TEAD-luciferase reporter activity (compound concentration: 10 uM): inactive: 3.01
CCN(CC)CC[n+]1ccc2c(C)c3[nH]c4ccc(O)cc4c3c(C)c2c1 as listed: TEAD-luciferase reporter activity (compound concentration: 200 nM): inactive: -2.14; TEAD-luciferase reporter activity (compound concentration: 2 uM): inactive: 1.81; TEAD-luciferase reporter activity (compound concentration: 10 uM): inactive: 0.736
